From ChEMBL document CHEMBL1157379, “Transcriptional response of Candida parapsilosis following exposure to farnesol” (2007)
Further values from the same series stand in other lists.

Tests used:
Type in all cases: functional
Candida parapsilosis [1] = assay: Increase in PUT2 gene expression in Candida parapsilosis CLIB214 at 50 uM after 2 hrs by microarray based transcriptional profiling relative to control
Candida parapsilosis [2] = assay: Increase in SPT6 gene expression in Candida parapsilosis CLIB214 at 50 uM after 2 hrs by microarray based transcriptional profiling relative to control
Candida parapsilosis [3] = assay: Increase in PUT1 gene expression in Candida parapsilosis CLIB214 at 50 uM after 2 hrs by microarray based transcriptional profiling relative to control
Candida parapsilosis [4] = assay: Decrease in CGD gene ortholog accession number orf19.433 expression in Candida parapsilosis CLIB214 at 50 uM after 2 hrs by microarray based transcriptional profiling relative to control
Candida parapsilosis [5] = assay: Increase in GenBank accession number NP_943641.1 expression in Candida parapsilosis CLIB214 at 50 uM after 2 hrs by microarray based transcriptional profiling relative to control
Candida parapsilosis [6] = assay: Increase in CGD gene ortholog accession number orf19.444 expression in Candida parapsilosis CLIB214 at 50 uM after 2 hrs by microarray based transcriptional profiling relative to control
Candida parapsilosis [7] = assay: Increase in CGD gene ortholog accession number orf19.2310 expression in Candida parapsilosis CLIB214 at 50 uM after 2 hrs by microarray based transcriptional profiling relative to control
Candida parapsilosis [8] = assay: Increase in CGD gene ortholog accession number orf19.5378 expression in Candida parapsilosis CLIB214 at 50 uM after 2 hrs by microarray based transcriptional profiling relative to control
Candida parapsilosis [9] = assay: Decrease in MES1 gene expression in Candida parapsilosis CLIB214 at 50 uM after 2 hrs by microarray based transcriptional profiling relative to control
Candida parapsilosis [10] = assay: Decrease in CGD gene ortholog accession number orf19.5751 expression in Candida parapsilosis CLIB214 at 50 uM after 2 hrs by microarray based transcriptional profiling relative to control
Candida parapsilosis [11] = assay: Increase in CYS4 gene expression in Candida parapsilosis CLIB214 at 50 uM after 2 hrs by microarray based transcriptional profiling relative to control
Candida parapsilosis [12] = assay: Decrease in CGD gene ortholog accession number orf19.292 expression in Candida parapsilosis CLIB214 at 50 uM after 2 hrs by microarray based transcriptional profiling relative to control
Candida parapsilosis [13] = assay: Decrease in CGD gene ortholog accession number orf19.3356 expression in Candida parapsilosis CLIB214 at 50 uM after 2 hrs by microarray based transcriptional profiling relative to control
Candida parapsilosis [14] = assay: Increase in STI1 gene expression in Candida parapsilosis CLIB214 at 50 uM after 2 hrs by microarray based transcriptional profiling relative to control
Candida parapsilosis [15] = assay: Increase in CGD gene ortholog accession number orf19.2115 expression in Candida parapsilosis CLIB214 at 50 uM after 2 hrs by microarray based transcriptional profiling relative to control
Candida parapsilosis [16] = assay: Decrease in CGD gene ortholog accession number orf19.6173 expression in Candida parapsilosis CLIB214 at 50 uM after 2 hrs by microarray based transcriptional profiling relative to control
Candida parapsilosis [17] = assay: Decrease in GAL10 gene expression in Candida parapsilosis CLIB214 at 50 uM after 2 hrs by microarray based transcriptional profiling relative to control
Candida parapsilosis [18] = assay: Decrease in CGD gene ortholog accession number orf19.278 expression in Candida parapsilosis CLIB214 at 50 uM after 2 hrs by microarray based transcriptional profiling relative to control
Candida parapsilosis [19] = assay: Increase in CGD gene ortholog accession number orf19.5416 expression in Candida parapsilosis CLIB214 at 50 uM after 2 hrs by microarray based transcriptional profiling relative to control
Candida parapsilosis [20] = assay: Increase in VCX1 gene expression in Candida parapsilosis CLIB214 at 50 uM after 2 hrs by microarray based transcriptional profiling relative to control
Candida parapsilosis [21] = assay: Decrease in CGD gene ortholog accession number orf19.2149 expression in Candida parapsilosis CLIB214 at 50 uM after 2 hrs by microarray based transcriptional profiling relative to control

For `CC(C)=CCC/C(C)=C/CC/C(C)=C/CO` [FARNESOL], the “fold change (FC)” value (Candida parapsilosis [1]) was 1.6, the “fold change (FC)” value (Candida parapsilosis [2]) was 2.3 and the “fold change (FC)” value (Candida parapsilosis [3]) was 2.16. For the same compound, the “fold change (FC)” value (Candida parapsilosis [4]) was 2.11, the “fold change (FC)” value (Candida parapsilosis [5]) was 2.03 and the “fold change (FC)” value (Candida parapsilosis [6]) was 2.03. The “fold change (FC)” value (Candida parapsilosis [7]) was 1.93, the “fold change (FC)” value (Candida parapsilosis [8]) was 1.66 and the “fold change (FC)” value (Candida parapsilosis [9]) was 1.53. For the same compound, the “fold change (FC)” value (Candida parapsilosis [10]) was 1.69, the “fold change (FC)” value (Candida parapsilosis [11]) was 2.1 and the “fold change (FC)” value (Candida parapsilosis [12]) was 1.78. The “fold change (FC)” value (Candida parapsilosis [13]) was 2.08, the “fold change (FC)” value (Candida parapsilosis [14]) was 2.71 and the “fold change (FC)” value (Candida parapsilosis [15]) was 2.04. For the same compound, the “fold change (FC)” value (Candida parapsilosis [16]) was 3.98, the “fold change (FC)” value (Candida parapsilosis [17]) was 1.78 and the “fold change (FC)” value (Candida parapsilosis [18]) was 1.86. For the same compound, the “fold change (FC)” value (Candida parapsilosis [19]) was 1.54, the “fold change (FC)” value (Candida parapsilosis [20]) was 1.72 and the “fold change (FC)” value (Candida parapsilosis [21]) was 2.06.
